This note sets out measurements from PubChem BioAssay AID1347422 (Sanford-Burnham Center for Chemical Genomics, 2020).

The chains behind the UniProt entries cited, without tags or fusion partners. Where a name states a change or a piece, a line headed by the entry shows the natural chain unless it says otherwise.
UniProt O00391: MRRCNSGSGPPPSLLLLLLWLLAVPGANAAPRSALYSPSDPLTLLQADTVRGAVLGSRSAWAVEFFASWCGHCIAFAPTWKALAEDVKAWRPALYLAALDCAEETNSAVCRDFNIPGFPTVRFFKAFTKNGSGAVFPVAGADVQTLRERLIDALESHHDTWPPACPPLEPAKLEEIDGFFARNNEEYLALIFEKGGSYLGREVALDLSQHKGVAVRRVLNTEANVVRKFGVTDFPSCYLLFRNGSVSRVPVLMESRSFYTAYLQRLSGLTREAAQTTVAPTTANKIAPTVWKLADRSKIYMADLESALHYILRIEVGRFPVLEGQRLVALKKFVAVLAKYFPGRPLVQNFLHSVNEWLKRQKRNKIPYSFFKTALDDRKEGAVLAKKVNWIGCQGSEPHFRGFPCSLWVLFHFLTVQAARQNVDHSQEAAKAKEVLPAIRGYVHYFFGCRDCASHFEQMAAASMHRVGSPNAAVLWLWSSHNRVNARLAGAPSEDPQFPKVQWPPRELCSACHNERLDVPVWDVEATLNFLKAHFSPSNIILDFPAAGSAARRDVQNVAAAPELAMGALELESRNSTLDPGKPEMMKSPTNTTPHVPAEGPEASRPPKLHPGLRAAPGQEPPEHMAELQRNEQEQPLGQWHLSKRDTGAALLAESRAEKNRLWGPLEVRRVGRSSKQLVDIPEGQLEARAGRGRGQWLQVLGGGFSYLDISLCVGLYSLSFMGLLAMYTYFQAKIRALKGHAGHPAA

In all, about 1,000 compounds were measured (“thermal shift dTm”: median about 0.19, highest 2% from about 1.7 on). This is one part of the list. Activity calls are given as the source filed them.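 Rule for the calls: active = mean rise in melting temperature of at least 1 degC over same-plate control wells; inactive = below that, where a call was filed.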

The target in the experiment is Sulfhydryl oxidase 1 (Homo sapiens) (UniProt O00391). As to the kind of experiment: ligand-induced melting shift of human QSOX1 – biophysical, protein thermal shift, single concentration, QSOX1 inhibitor project, confirmation (AID 1347422).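 Note: dTm is compound Tm minus mean Tm of DMSO-only wells on that plate.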 The following applies: recombinant hQSOX1 thermal shift, Sypro Orange, at 25 µM, stronger effect = higher value.
For `O=C(Nc1ccc(S(=O)(=O)Nc2ccc(Cl)cc2)cc1)c1ccc2c(c1)OCO2`, the thermal shift dTm was inactive: -0.51 °C.
In the case of `CCSC1=N/C(=C\c2ccc(-c3cccc(Br)c3)o2)C(=O)S1`, the thermal shift dTm was 0.39 °C.
In the case of `COc1ccc(-c2nc3ccccc3s2)cc1NC(=O)c1ccccc1`, the thermal shift dTm was 0.15 °C.
Under `CC(C)(O)C#Cc1ccc(C(=O)N2CCN(c3cccc(Cl)c3)CC2)cc1` stands 0.1 °C.
Under `COc1ccc(NC(=O)Nc2ccc(C)cc2C)cc1` stands 0.05 °C; under `COc1ccc(C(=O)O/N=C(\N)Cc2ccc(Cl)c(Cl)c2)cc1`, 0.4 °C.
The result for `Cc1ccccc1NC(=O)Nc1ccc(C(F)(F)F)cc1` reads 0.8 °C.
Regarding `N#CC1=C(N)Oc2cc(N)ccc2C1c1ccc2ccccc2c1` (configuration not stated), the thermal shift dTm was found to be 0.29 °C.
The result for `OCc1cc(Cl)c(OCc2ccc(Br)cc2)c(Cl)c1` reads 0.3 °C; that for `CCOc1ccc(Nc2nnc(C)s2)cc1`, 0.28 °C; that for `NC(=O)CSc1nc2sc3c(c2c(=O)n1Cc1ccccc1)CCCCC3`, 0.2 °C.
The result for `C(=C\c1nn2c(-c3ccco3)nnc2s1)/c1cccs1` reads 0.58 °C.
The result for `Fc1ccc(Nc2nc(NCc3ccccc3)c3ccccc3n2)cc1` reads 0.25 °C.
Consider `CCOC(=O)Cc1cc(=O)n2[nH]c(COC)c(-c3ccc(Cl)cc3)c2n1`, for which the thermal shift dTm was determined as 0.69 °C.
Turning to `O=C(NCCc1ccccc1)c1ccc(NC(=O)c2ccccn2)cc1`, the thermal shift dTm is 0.13 °C.
The result for `COc1ccc(OC)c(NS(=O)(=O)c2ccc(NC(=O)c3ccccc3SC)cc2)c1` reads inactive: -4.29 °C; that for `COc1ccc(C(=O)Nc2ccc(NC(C)=O)cc2)cc1C`, active: 1.48 °C; that for `O=S(=O)(Nc1ccc2c(c1)CCCC2)c1ccc2c(c1)OCCO2`, inactive: -0.01 °C.
The result for `Cc1cc(Br)cc(C)c1NC(=O)/C=C/c1ccco1` reads 0.52 °C; that for `N/C(=N\OC(=O)c1ccc2c(c1)OCO2)c1ccc(Br)cc1`, 0.03 °C; that for `CCOc1cc(CNc2nnn(C)n2)cc(Br)c1OCc1ccccc1Cl`, 0.72 °C.
The result for `COCCOc1ccc(C(=O)Nc2ccc(NC(C)=O)cc2)cc1` reads 0.09 °C; that for `Clc1ccc(C2=CC(c3cccs3)n3nnnc3N2)cc1` (configuration not stated), 0.63 °C.
For the molecule `CCc1cc(-c2n[nH]c(C)c2Oc2ccccc2)c(O)cc1OC`, the thermal shift dTm was inactive: -0.13 °C.
Under `Cc1ccc(NC(=O)N2CCC(Cc3ccccc3)CC2)cc1` stands 0.07 °C; under `C=C(C)COc1ccc(NC(=O)c2cccnc2)cc1`, 0.13 °C.
Under `Cc1ccc(CCC(=O)Nc2ccc(CC#N)cc2)cc1` stands active: 1.11 °C; under `CC(C)(C)c1cc(CN2CCCC(C(N)=O)C2)cc(C(C)(C)C)c1O` (configuration not stated), 0.84 °C; under `Cc1ccc2[nH]cc(CCNC(=O)c3cccc(NC(=O)C(C)C)c3)c2c1`, 0.16 °C.
With `COc1ccc(S(=O)(=O)NC(C)C2C3CC4CC(C3)CC2C4)cc1` (configuration not stated), the thermal shift dTm was inactive: -0.18 °C.
With `CC(=O)Nc1cccc(NC(=O)Nc2cc(C)ccc2C)c1`, the thermal shift dTm turned out to be 0.14 °C.
Regarding `N#CCc1ccc(NC(=O)c2ccc(N3CCCCC3)cc2)cc1`, the thermal shift dTm was 0.46 °C.
The result for `O=C(/C=C/c1cccs1)NCCCCNC(=O)/C=C/c1cccs1` reads 0.77 °C; that for `CCOc1ccc(NC(=S)N2CCC(C(N)=O)CC2)cc1`, inactive: -0.13 °C.
Under `O=S(=O)(c1ccc(Cl)cc1)N1CCCC1c1nc(-c2ccccc2)no1` (configuration not stated) stands 0.2 °C; under `Fc1ccc(-c2csc(Nc3ccc(Cl)cn3)n2)cc1`, 0.07 °C.
Under `O=C(Nc1ccc2c(c1)OCCO2)c1ccc(F)c(F)c1` stands 0.13 °C; under `Nc1c(-c2nc(-c3ccccc3)cs2)nnn1-c1ccccc1`, inactive: -0.03 °C.
Regarding `CCCC(=O)Nc1ccc(NC(=O)CCc2ccccc2)cc1`, the thermal shift dTm was inactive: -0.1 °C.
The result for `O=C(Nc1ccc(C(=O)Nc2cccnc2)cc1)c1ccccc1` reads 0.97 °C.
The result for `COc1cc(NC(=O)Nc2ccccc2)c(OC)cc1Cl` reads 0.09 °C; that for `CSc1cccc(NC(=O)NCc2ccccn2)c1`, 0.18 °C.
The result for `Cc1nc(C)c(-c2csc(Nc3ccc(Cl)cn3)n2)s1` reads 0.16 °C; that for `CCc1cc(OCCOc2cccc3cccnc23)ccc1Cl`, 0.11 °C; that for `O=C(Nc1ccc2ncccc2c1)c1cccc([N+](=O)[O-])c1`, 0.53 °C.
For `COc1cc(/C=N/O)cc(Cl)c1OCc1ccccc1Cl`, the thermal shift dTm came to 0.06 °C.
`CC(=O)Nc1ccc(-c2nc3ccccc3s2)c(Cl)c1`: the thermal shift dTm worked out at 0.68 °C.
In the case of `O=C(NCCCn1ccnc1)c1cn(Cc2ccc(F)cc2Cl)nn1`, the thermal shift dTm came to 0.09 °C.
Under `CCc1cccc(NC(=O)Nc2ccc(F)cc2)c1` stands inactive: -1.29 °C; under `COc1ccc(OC(=O)COc2ccc(C)cc2Br)cc1`, 0.44 °C.
The result for `Cc1ccc(C(=O)Nc2ccc3c(c2)OCO3)cc1S(=O)(=O)Nc1cccc(C)c1C` reads active: 1.17 °C; that for `CN1CCN(S(=O)(=O)c2ccc(NC(=O)c3ccc(Cl)s3)cc2)CC1`, 0.13 °C; that for `O=C(Nc1ccon1)c1cc(-c2ccccc2)nc2ccccc12`, 0.28 °C.
Take `Fc1ccc(Nc2nnc(-c3cccnc3)s2)cc1Cl`: the thermal shift dTm is inactive: -0.63 °C.
Take `Cc1cc(-c2nc3c(cnn3Cc3ccco3)[nH]2)ccc1O`: the thermal shift dTm turned out to be 0.23 °C.
For the molecule `CCc1ccc(C(=O)Nc2cccc(-c3nn[nH]n3)c2)s1`, the thermal shift dTm was 0.28 °C.
On to `Cc1ccc2c(c1)C(c1c[nH]c3ccccc13)(c1c[nH]c3ccccc13)C(=O)N2C`, for which the thermal shift dTm is 0.58 °C.
